# Experimental data taken from patent US20240368301A1.
# Results are given in words; binding and its absence hold for the method and conditions named. Some entries that bind do so weakly or less than the wild type.
# B1: AD4-12 (antibody, V domains shown)
# VH: EVQLEESGPGLVAPSQSLSITCTVSGFSLTGYGVNWVRQPPGKGLEWLGIIWGDGSTDYNSALKSRLSISKDNSKSQVFLKMNSLQSDDTARYYCARAGKMDYWGQGTSVTVSS
# VL: DIVLTQSPASLAVSLGQGATISCRASESVDSYGNSFMHWYQQKPGQPPKPLIYLASNLESGVPARFSGSGSRTDFTLTIDPVEADDAATYYCQQNNEYPWTFGGGTKLEIK
# Molecular target: cynomolgus macaques SIRPα-his (ACRO, Cat #SIA-C52H7) (cynomolgus macaque)
# Experiment: BLI (Octet RED 96)
binder,measurement,value
B1,binding,binds
